Assay: Phase I SAD study: time dependent change of uric acid levels in blood
Format: in vivo, human
Settings: 30 mg single dose
Experimental: In this example, also the time dependent change of uric acid levels in blood were tested. At 30 mg single dose, the plasma levels of uric acid drop after 4 hours to a minimum and go back to baseline levels after 96 hours.

COc1cccc(-c2ccc(NC(=O)C3=C(C(=O)O)CCC3)c(F)c2)c1 [IMU-838]
time at which plasma levels of uric acid drop to a minimum: 4 h
time at which plasma levels of uric acid go back to baseline: 96 h

— patent publication US12629347B2, “Compounds and dosage regimen for use in the prevention or treatment of chronic inflammatory and/or autoimmune diseases” (Immunic AG, priority 2017, dated 2026)
